{
  "sequences": {"note": "Chains of the proteins cited; added tags and fusions are not shown.", "UniProt Q61188, whole entry": "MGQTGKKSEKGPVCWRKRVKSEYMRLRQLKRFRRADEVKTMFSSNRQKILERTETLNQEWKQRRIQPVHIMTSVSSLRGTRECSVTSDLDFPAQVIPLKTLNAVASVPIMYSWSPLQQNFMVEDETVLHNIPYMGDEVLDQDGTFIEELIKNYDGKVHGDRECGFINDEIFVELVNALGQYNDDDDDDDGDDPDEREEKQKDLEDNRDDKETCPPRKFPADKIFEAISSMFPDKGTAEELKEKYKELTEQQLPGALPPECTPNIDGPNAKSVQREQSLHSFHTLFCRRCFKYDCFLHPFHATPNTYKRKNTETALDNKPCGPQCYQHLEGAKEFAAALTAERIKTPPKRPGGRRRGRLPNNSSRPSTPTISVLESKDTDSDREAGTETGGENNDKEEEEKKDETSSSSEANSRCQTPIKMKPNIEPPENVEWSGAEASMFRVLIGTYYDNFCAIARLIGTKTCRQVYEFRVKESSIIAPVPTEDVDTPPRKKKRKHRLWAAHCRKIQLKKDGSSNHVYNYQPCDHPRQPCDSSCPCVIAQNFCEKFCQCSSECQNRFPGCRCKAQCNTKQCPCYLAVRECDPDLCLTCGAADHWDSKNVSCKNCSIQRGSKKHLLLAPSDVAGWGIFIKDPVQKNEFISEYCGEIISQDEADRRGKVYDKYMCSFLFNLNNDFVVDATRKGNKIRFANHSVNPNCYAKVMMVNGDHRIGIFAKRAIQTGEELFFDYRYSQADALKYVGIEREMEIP"},
  "source": "ChEMBL document CHEMBL5674883",
  "about": "“The Heterochromatin Landscape in Migrating Cells and the Importance of H3K27me3 for Associated Transcriptome Alterations” (Cells, 2018)",
  "assay_type_in_all_cases": "cell-based",
  "key": {"[1]": {"target": "T1, RNA polymerase II (Mus musculus) (UniProt P08775+Q8CFI7+P97760+A0A3Q4L2S8+Q80UW8+P61219+P62488+Q923G2+P60898+O08740+Q63871+P62876)", "assay": "Inhibition of RNA polymerase II in mouse B16-F1 migrating cells assessed as fold change in Tnnt1-RNA stability at 0.1 mM measured by ChIP-seq analysis relative to control cells"}, "[2]": {"target": "T1, RNA polymerase II (Mus musculus)", "assay": "Inhibition of RNA polymerase II in mouse B16-F1 migrating cells assessed as fold change in Acvrl1-RNA stability at 0.1 mM measured by ChIP-seq analysis relative to control cells"}, "[3]": {"target": "T1, RNA polymerase II (Mus musculus)", "assay": "Inhibition of RNA polymerase II in mouse B16-F1 migrating cells assessed as fold change in Smim4-RNA stability at 0.1 mM measured by ChIP-seq analysis relative to control cells"}, "[4]": {"target": "T1, RNA polymerase II (Mus musculus)", "assay": "Inhibition of RNA polymerase II in mouse B16-F1 migrating cells assessed as fold change in Ccdc124-RNA stability at 0.1 mM measured by ChIP-seq analysis relative to control cells"}, "[5]": {"target": "T1, RNA polymerase II (Mus musculus)", "assay": "Inhibition of RNA polymerase II in mouse B16-F1 migrating cells assessed as fold change in Mospd3-RNA stability at 0.1 mM measured by ChIP-seq analysis relative to control cells"}, "[6]": {"target": "T1, RNA polymerase II (Mus musculus)", "assay": "Inhibition of RNA polymerase II in mouse B16-F1 migrating cells assessed as fold change in Smdt1-RNA stability at 0.1 mM measured by ChIP-seq analysis relative to control cells"}, "[7]": {"target": "T1, RNA polymerase II (Mus musculus)", "assay": "Inhibition of RNA polymerase II in mouse B16-F1 migrating cells assessed as fold change in Plpp2-RNA stability at 0.1 mM measured by ChIP-seq analysis relative to control cells"}, "[8]": {"target": "T1, RNA polymerase II (Mus musculus)", "assay": "Inhibition of RNA polymerase II in mouse B16-F1 migrating cells assessed as fold change in Napa-RNA stability at 0.1 mM measured by ChIP-seq analysis relative to control cells"}, "[9]": {"target": "T1, RNA polymerase II (Mus musculus)", "assay": "Inhibition of RNA polymerase II in mouse B16-F1 migrating cells assessed as fold change in Ythdc1-RNA stability at 0.1 mM measured by ChIP-seq analysis relative to control cells"}, "[10]": {"target": "T1, RNA polymerase II (Mus musculus)", "assay": "Inhibition of RNA polymerase II in mouse B16-F1 migrating cells assessed as fold change in Impa1-RNA stability at 0.1 mM measured by ChIP-seq analysis relative to control cells"}, "[11]": {"target": "T1, RNA polymerase II (Mus musculus)", "assay": "Inhibition of RNA polymerase II in mouse B16-F1 migrating cells assessed as fold change in Cnot2-RNA stability at 0.1 mM measured by ChIP-seq analysis relative to control cells"}, "[12]": {"target": "T1, RNA polymerase II (Mus musculus)", "assay": "Inhibition of RNA polymerase II in mouse B16-F1 migrating cells assessed as fold change in Bbs7-RNA stability at 0.1 mM measured by ChIP-seq analysis relative to control cells"}, "[13]": {"target": "T1, RNA polymerase II (Mus musculus)", "assay": "Inhibition of RNA polymerase II in mouse B16-F1 migrating cells assessed as fold change in Ckap5-RNA stability at 0.1 mM measured by ChIP-seq analysis relative to control cells"}, "[14]": {"target": "T1, RNA polymerase II (Mus musculus)", "assay": "Inhibition of RNA polymerase II in mouse B16-F1 migrating cells assessed as fold change in Phf3-RNA stability at 0.1 mM measured by ChIP-seq analysis relative to control cells"}, "[15]": {"target": "T1, RNA polymerase II (Mus musculus)", "assay": "Inhibition of RNA polymerase II in mouse B16-F1 migrating cells assessed as fold change in Ranbp2-RNA stability at 0.1 mM measured by ChIP-seq analysis relative to control cells"}, "[16]": {"target": "T1, RNA polymerase II (Mus musculus)", "assay": "Inhibition of RNA polymerase II in mouse B16-F1 migrating cells assessed as fold change in Sept2-RNA stability at 0.1 mM measured by ChIP-seq analysis relative to control cells"}, "[17]": {"target": "T1, RNA polymerase II (Mus musculus)", "assay": "Inhibition of RNA polymerase II in mouse B16-F1 migrating cells assessed as fold change in U2surp-RNA stability at 0.1 mM measured by ChIP-seq analysis relative to control cells"}, "[18]": {"target": "T1, RNA polymerase II (Mus musculus)", "assay": "Inhibition of RNA polymerase II in mouse B16-F1 migrating cells assessed as fold change in Ccdc34-RNA stability at 0.1 mM measured by ChIP-seq analysis relative to control cells"}, "[19]": {"target": "T1, RNA polymerase II (Mus musculus)", "assay": "Inhibition of RNA polymerase II in mouse B16-F1 migrating cells assessed as fold change in Hmmr-RNA stability at 0.1 mM measured by ChIP-seq analysis relative to control cells"}, "[20]": {"target": "T1, RNA polymerase II (Mus musculus)", "assay": "Inhibition of RNA polymerase II in mouse B16-F1 migrating cells assessed as fold change in Depdc1a-RNA stability at 0.1 mM measured by ChIP-seq analysis relative to control cells"}, "[21]": {"target": "Histone-lysine N-methyltransferase EZH2 (Mus musculus) (UniProt Q61188)", "assay": "Inhibition of EZH2 in mouse B16-F1 migrating cells assessed as fold change in H3K27me3-independent regulated Kif20b-mRNA expression at 3 uM measured by ChIP-seq analysis relative to control cells"}, "[22]": {"target": "Histone-lysine N-methyltransferase EZH2 (Mus musculus) (UniProt Q61188)", "assay": "Inhibition of EZH2 in mouse B16-F1 migrating cells assessed as fold change in H3K27me3-buffered regulated Map6-mRNA expression at 3 uM measured by ChIP-seq analysis relative to control cells"}, "[23]": {"target": "Histone-lysine N-methyltransferase EZH2 (Mus musculus) (UniProt Q61188)", "assay": "Inhibition of EZH2 in mouse B16-F1 migrating cells assessed as fold change in H3K27me3-buffered regulated Wfikkn2-mRNA expression at 3 uM measured by ChIP-seq analysis relative to control cells"}, "[24]": {"target": "Histone-lysine N-methyltransferase EZH2 (Mus musculus) (UniProt Q61188)", "assay": "Inhibition of EZH2 in mouse B16-F1 migrating cells assessed as fold change in H3K27me3-buffered regulated Hmgcs1-mRNA expression at 3 uM measured by ChIP-seq analysis relative to control cells"}, "[25]": {"target": "Histone-lysine N-methyltransferase EZH2 (Mus musculus) (UniProt Q61188)", "assay": "Inhibition of EZH2 in mouse B16-F1 migrating cells assessed as fold change in H3K27me3-buffered regulated Fbln1-mRNA expression at 3 uM measured by ChIP-seq analysis relative to control cells"}, "[26]": {"target": "Histone-lysine N-methyltransferase EZH2 (Mus musculus) (UniProt Q61188)", "assay": "Inhibition of EZH2 in mouse B16-F1 migrating cells assessed as fold change in H3K27me3-buffered regulated Cdc42se1-mRNA expression at 3 uM measured by ChIP-seq analysis relative to control cells"}, "[27]": {"target": "Histone-lysine N-methyltransferase EZH2 (Mus musculus) (UniProt Q61188)", "assay": "Inhibition of EZH2 in mouse B16-F1 migrating cells assessed as fold change in H3K27me3-buffered regulated Wdhd1-mRNA expression at 3 uM measured by ChIP-seq analysis relative to control cells"}, "[28]": {"target": "Histone-lysine N-methyltransferase EZH2 (Mus musculus) (UniProt Q61188)", "assay": "Inhibition of EZH2 in mouse B16-F1 migrating cells assessed as fold change in H3K27me3-buffered regulated Ccdc88a-mRNA expression at 3 uM measured by ChIP-seq analysis relative to control cells"}, "[29]": {"target": "Histone-lysine N-methyltransferase EZH2 (Mus musculus) (UniProt Q61188)", "assay": "Inhibition of EZH2 in mouse B16-F1 migrating cells assessed as fold change in H3K27me3-buffered regulated Sntb2-mRNA expression at 3 uM measured by ChIP-seq analysis relative to control cells"}, "[30]": {"target": "Histone-lysine N-methyltransferase EZH2 (Mus musculus) (UniProt Q61188)", "assay": "Inhibition of EZH2 in mouse B16-F1 migrating cells assessed as fold change in H3K27me3-buffered regulated Gfod1-mRNA expression at 3 uM measured by ChIP-seq analysis relative to control cells"}},
  "note": "Further values from the same series stand in other lists.",
  "data": [
    {"smiles": "OC[C@H]1O[C@@H](n2cnc3cc(Cl)c(Cl)cc32)[C@H](O)[C@@H]1O", "values": [
      {"measurement": "log2FC", "setting": "[1]", "result": 0.87},
      {"measurement": "log2FC", "setting": "[2]", "result": 0.83},
      {"measurement": "log2FC", "setting": "[3]", "result": 0.59},
      {"measurement": "log2FC", "setting": "[4]", "result": 0.5},
      {"measurement": "log2FC", "setting": "[5]", "result": 0.5},
      {"measurement": "log2FC", "setting": "[6]", "result": 0.41},
      {"measurement": "log2FC", "setting": "[7]", "result": 0.39},
      {"measurement": "log2FC", "setting": "[8]", "result": 0.38},
      {"measurement": "log2FC", "setting": "[9]", "result": -0.38},
      {"measurement": "log2FC", "setting": "[10]", "result": -0.39},
      {"measurement": "log2FC", "setting": "[11]", "result": -0.48},
      {"measurement": "log2FC", "setting": "[12]", "result": -0.49},
      {"measurement": "log2FC", "setting": "[13]", "result": -0.53},
      {"measurement": "log2FC", "setting": "[14]", "result": -0.54},
      {"measurement": "log2FC", "setting": "[15]", "result": -0.6},
      {"measurement": "log2FC", "setting": "[16]", "result": -0.67},
      {"measurement": "log2FC", "setting": "[17]", "result": -0.85},
      {"measurement": "log2FC", "setting": "[18]", "result": -0.94},
      {"measurement": "log2FC", "setting": "[19]", "result": -1},
      {"measurement": "log2FC", "setting": "[20]", "result": -1.2}
    ]},
    {"smiles": "CCCc1cc(C)[nH]c(=O)c1CNC(=O)c1cc(-c2ccnc(N3CCN(C)CC3)c2)cc2c1cnn2C(C)C", "values": [
      {"measurement": "log2FC", "setting": "[21]", "result": -0.9},
      {"measurement": "log2FC", "setting": "[22]", "result": 0.52},
      {"measurement": "log2FC", "setting": "[23]", "result": 0.47},
      {"measurement": "log2FC", "setting": "[24]", "result": 0.47},
      {"measurement": "log2FC", "setting": "[25]", "result": 0.39},
      {"measurement": "log2FC", "setting": "[26]", "result": -0.39},
      {"measurement": "log2FC", "setting": "[27]", "result": -0.41},
      {"measurement": "log2FC", "setting": "[28]", "result": -0.49},
      {"measurement": "log2FC", "setting": "[29]", "result": -0.52},
      {"measurement": "log2FC", "setting": "[30]", "result": -0.52}
    ]}
  ]
}
